About 6,100 (1.1%) of roughly 580,000 compounds were called active. Inconclusive means that the source gave no clear call. Such entries were picked first, then a sample of the others. The call rests on the fitted dose curve; in most records, active means well fitted inhibition curve with a large enough effect; inconclusive means small, poorly fitted or top-dose-only effect, or another doubt; inactive means no such curve, though single readings can be large or run the other way. Where the call is inconclusive, the potency comes from a doubtful curve fit.
Target: Polyunsaturated fatty acid lipoxygenase ALOX12 (Homo sapiens) (UniProt P18054)
Assay: Primary qHTS assay for inhibitors of human arachidonate 12S-lipoxygenase (ALOX12): Round 2
Conditions: purified 12hLO, xylenol orange hydroperoxide absorbance; activity change, negative = inhibition: at 108 µM (top of the series) unless noted
How it was run: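 Purified human 12hLO at 150 nM in 25 mM Hepes, 0.01% Triton X-100, pH 7.0, preincubated 15 min at room temperature with compound. Reaction started with 40 uM arachidonic acid, 30 min at room temperature. Hydroperoxide measured by Fe-xylenol orange, 573/405 nm absorbance ratio.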
On the % scale 0 is the no-effect control and ±100 the full control effect; potency means the concentration at half of the fitted maximal effect.

By UniProt entry, the sequences of proteins in these tests, tags left out.
UniProt P18054, whole entry, looked up: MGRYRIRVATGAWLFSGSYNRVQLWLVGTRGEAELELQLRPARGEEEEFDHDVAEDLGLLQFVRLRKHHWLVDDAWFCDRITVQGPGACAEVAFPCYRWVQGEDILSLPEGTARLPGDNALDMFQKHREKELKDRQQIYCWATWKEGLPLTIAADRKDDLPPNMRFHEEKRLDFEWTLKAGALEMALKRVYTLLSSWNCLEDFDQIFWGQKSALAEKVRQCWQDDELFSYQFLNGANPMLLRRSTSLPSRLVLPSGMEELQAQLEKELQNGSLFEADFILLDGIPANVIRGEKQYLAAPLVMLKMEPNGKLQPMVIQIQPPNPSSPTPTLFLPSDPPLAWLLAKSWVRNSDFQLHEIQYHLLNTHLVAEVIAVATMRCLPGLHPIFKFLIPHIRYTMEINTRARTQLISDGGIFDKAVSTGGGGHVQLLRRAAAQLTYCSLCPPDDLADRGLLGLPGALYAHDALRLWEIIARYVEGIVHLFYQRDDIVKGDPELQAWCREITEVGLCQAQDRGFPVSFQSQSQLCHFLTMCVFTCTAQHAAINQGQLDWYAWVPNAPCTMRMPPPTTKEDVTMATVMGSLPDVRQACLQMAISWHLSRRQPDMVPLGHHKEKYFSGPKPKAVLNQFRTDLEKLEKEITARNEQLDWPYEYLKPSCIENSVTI

Row | SMILES | Potency | activity change, negative = inhibition
1 | COc1ccc(C2CC(c3ccccc3)=NN2c2ccc(C(N)=O)cc2)cc1 (stereo not drawn) | inconclusive: 50.1 µM [inhibitor, partial curve, poor fit] | –
2 | C=CCNC(=O)NC(=O)CN(CC)c1cccc(F)c1 | inconclusive: 0.282 µM [inhibitor, full curve, poor fit] | –
3 | COc1ccc(NS(=O)(=O)c2ccc(C)c(C(=O)N(C)CCc3ccc(OC)c(OC)c3)c2)cc1 | – | inactive: -15.6%
4 | Cc1noc(C)c1NC(=O)N[C@@H]1C[C@H](Cn2cc(CN3CCS(=O)(=O)CC3)nn2)[C@@H](O)[C@H]1O | inconclusive: 10 µM [inhibitor, partial curve] | –
5 | COc1ccc(CNC(=O)c2cnc3ccc(C)cn3c2=O)cc1 | inconclusive: 112 µM [inhibitor, partial curve, poor fit] | –
6 | CCOC(=O)N1CCN(C(=O)c2ccc3c(c2)N(Cc2ccc(C)cc2)CCS3)CC1 | inconclusive: 70.8 µM [inhibitor, partial curve, poor fit] | –
7 | CCC(CC)NC(=O)N(C)Cc1ccccc1 | – | inactive: -3.16%
8 | CCCCC(=O)NNC(=S)NC(=O)c1ccc(C)cc1 | inconclusive: 44.7 µM [inhibitor, partial curve, poor fit] | –
9 | O=C(NCc1ccc2c(c1)CCN2C(=O)c1ccncc1)c1ccccc1F | inconclusive: 56.2 µM [inhibitor, partial curve, poor fit] | –
10 | COc1cccc(N2C(=O)NC(=NC3CCCCC3)C23CCCN([S+](=O)([O-])c2cccs2)C3)c1 (stereo not drawn) | inconclusive: 56.2 µM [inhibitor, partial curve, poor fit] | –
11 | N#C/C(=C\c1ccc([N+](=O)[O-])o1)c1nc2ccccc2[nH]1 | – | inactive: -9.03%
12 | CC(C)C[C@@H](CN1CCCC1CN1C(=S)NC[C@@H]1Cc1ccccc1)N1C[C@H](Cc2ccccc2)N(CCc2ccccc2)C1=S (stereo partly drawn) | active: 39.8 µM | –
13 | Clc1ccc(C=NN2CCCCCC2)cc1 | inconclusive: 100 µM [inhibitor, partial curve, poor fit] | –
14 | CC(NC(=O)c1n[nH]c(=O)c2ccccc12)c1ccc(F)c(F)c1 (stereo not drawn) | inconclusive: 15.8 µM [inhibitor, full curve, poor fit] | –
15 | O=C1NCc2ccccc2CC12CCCN(Cc1cccc(Cl)c1)C2 (stereo not drawn) | inconclusive: 56.2 µM [inhibitor, partial curve] | –
16 | Nc1ncc([N+](=O)[O-])c(N2CCCCCC2)n1 | – | inactive: 13.6%
17 | O=C(NCCc1ccccn1)c1cc(-c2ccccc2)nc2ccccc12 | inconclusive: 12.6 µM [inhibitor, full curve, poor fit] | –
18 | Cn1c(=O)c2cc(NC(=S)NCc3ccccc3F)ccc2n1Cc1cccc(C(F)(F)F)c1 | inconclusive: 31.6 µM [inhibitor, partial curve] | –
19 | C[C@@H]1CN([C@@H](C)CO)S(=O)(=O)c2ccc(Br)cc2O[C@H]1CN(C)Cc1ccccc1F | – | inactive: -7.98%
20 | COc1ccc(C2C(C(=O)c3ccco3)=C(O)C(=O)N2CCN2CCOCC2)c(OC)c1 (stereo not drawn) | inconclusive: 11.2 µM [inhibitor, full curve, poor fit] | –
21 | N#Cc1ccc(C(=O)NCCSC(F)(F)F)cc1 | – | inactive: -3.6%

Quoted from above: entries 4–18
Row | SMILES | Potency | activity change, negative = inhibition
4 | Cc1noc(C)c1NC(=O)N[C@@H]1C[C@H](Cn2cc(CN3CCS(=O)(=O)CC3)nn2)[C@@H](O)[C@H]1O | inconclusive: 10 µM [inhibitor, partial curve] | –
5 | COc1ccc(CNC(=O)c2cnc3ccc(C)cn3c2=O)cc1 | inconclusive: 112 µM [inhibitor, partial curve, poor fit] | –
6 | CCOC(=O)N1CCN(C(=O)c2ccc3c(c2)N(Cc2ccc(C)cc2)CCS3)CC1 | inconclusive: 70.8 µM [inhibitor, partial curve, poor fit] | –
7 | CCC(CC)NC(=O)N(C)Cc1ccccc1 | – | inactive: -3.16%
8 | CCCCC(=O)NNC(=S)NC(=O)c1ccc(C)cc1 | inconclusive: 44.7 µM [inhibitor, partial curve, poor fit] | –
9 | O=C(NCc1ccc2c(c1)CCN2C(=O)c1ccncc1)c1ccccc1F | inconclusive: 56.2 µM [inhibitor, partial curve, poor fit] | –
10 | COc1cccc(N2C(=O)NC(=NC3CCCCC3)C23CCCN([S+](=O)([O-])c2cccs2)C3)c1 (stereo not drawn) | inconclusive: 56.2 µM [inhibitor, partial curve, poor fit] | –
11 | N#C/C(=C\c1ccc([N+](=O)[O-])o1)c1nc2ccccc2[nH]1 | – | inactive: -9.03%
12 | CC(C)C[C@@H](CN1CCCC1CN1C(=S)NC[C@@H]1Cc1ccccc1)N1C[C@H](Cc2ccccc2)N(CCc2ccccc2)C1=S (stereo partly drawn) | active: 39.8 µM | –
13 | Clc1ccc(C=NN2CCCCCC2)cc1 | inconclusive: 100 µM [inhibitor, partial curve, poor fit] | –
14 | CC(NC(=O)c1n[nH]c(=O)c2ccccc12)c1ccc(F)c(F)c1 (stereo not drawn) | inconclusive: 15.8 µM [inhibitor, full curve, poor fit] | –
15 | O=C1NCc2ccccc2CC12CCCN(Cc1cccc(Cl)c1)C2 (stereo not drawn) | inconclusive: 56.2 µM [inhibitor, partial curve] | –
16 | Nc1ncc([N+](=O)[O-])c(N2CCCCCC2)n1 | – | inactive: 13.6%
17 | O=C(NCCc1ccccn1)c1cc(-c2ccccc2)nc2ccccc12 | inconclusive: 12.6 µM [inhibitor, full curve, poor fit] | –
18 | Cn1c(=O)c2cc(NC(=S)NCc3ccccc3F)ccc2n1Cc1cccc(C(F)(F)F)c1 | inconclusive: 31.6 µM [inhibitor, partial curve] | –

Further structures

Row | SMILES | Potency | activity change, negative = inhibition
22 | Cc1ccc2nc(COc3cccc(NC(=O)COc4ccc(F)cc4)c3)cc(=O)n2c1 | – | inactive: -18.9%
23 | COc1cccc(/C=C/C(=O)c2ccc(O)cc2)c1 | inconclusive: 50.1 µM [inhibitor, partial curve, poor fit] | –
24 | Cc1ccc(NC(=O)CCS(=O)(=O)c2ccc3c(c2)oc(=O)n3C)c(Br)c1 | inconclusive: 39.8 µM [inhibitor, partial curve, poor fit] | –
25 | CC(=O)Nc1cccc(-c2csc(NCc3ccco3)n2)c1 | inconclusive: 0.355 µM [inhibitor, full curve, poor fit] | –
26 | Cc1cccc(OCC(=O)Nc2cccc(-c3nc4ccccc4o3)c2)c1C | inconclusive: 6.31 µM [inhibitor, full curve, poor fit] | –
27 | CCOc1cc(S(=O)(=O)NCCc2c(C)[nH]c3ccc(C)cc23)ccc1Br | inconclusive: 20 µM [inhibitor, full curve, poor fit] | –
28 | Clc1ccc(-c2nc(-c3ccccn3)no2)cc1 | – | inactive: 14%
29 | N#C/C(=C\c1cn(CC(=O)N2CCCC2)c2ccccc12)C(=O)NCc1ccc2c(c1)OCO2 | – | inactive: -22.5%
30 | COc1ccc(C(=O)Cn2c(NCCCO)nc3ccccc32)cc1 | – | inactive: -23.7%
31 | Cc1ccc(NC(=S)NCc2ccccc2)c(Br)c1 | inconclusive: 0.708 µM [inhibitor, full curve, poor fit] | –
32 | CCCn1c(SCC(=O)NCC(=O)Nc2ccc(F)c(F)c2F)nc2ccccc2c1=O | inconclusive: 126 µM [inhibitor, single point] | –
33 | CCOc1ccc(CCNC(=O)c2cccc(S(=O)(=O)N3CC(C)OC(C)C3)c2)cc1OCC (stereo not drawn) | inconclusive: 126 µM [inhibitor, partial curve, poor fit] | –
34 | CCOc1c(Cl)cc(CNCc2cccc(C#N)c2)cc1OC | inconclusive: 70.8 µM [inhibitor, partial curve, poor fit] | –
35 | Cc1cccc(C(=O)OCC(=O)Nc2ccccc2N2CCCC2=O)c1O | – | inactive: 11.3%
36 | S=c1[nH]c(-c2ccccc2)cn1/N=C/c1ccccc1Br | inconclusive: 44.7 µM [inhibitor, partial curve] | –
37 | C=CCn1cc(CN2CCC(C(=O)Nc3cccc(-c4cccc(Cl)c4)c3)CC2)c(C)n1 | – | inactive: -24.4%
38 | Cc1ccc(C(C)NS(=O)(=O)C2=Cc3ccccc3CC2)o1 (stereo not drawn) | inconclusive: 35.5 µM [inhibitor, partial curve] | –
39 | COc1ccc(N2CCN(C(=O)CSCc3ccc(C)cc3)CC2)cc1 | inconclusive: 35.5 µM [inhibitor, partial curve, poor fit] | –
40 | CC(=O)c1cccc(NS(=O)(=O)c2cccc(S(=O)(=O)c3ccc(Br)cc3)c2)c1 | inconclusive: 44.7 µM [inhibitor, partial curve, poor fit] | –
41 | CCOCC(=O)NCCc1noc(-c2ccccc2)n1 | inconclusive: 17.8 µM [inhibitor, single point] | –
42 | C[C@@H]1CCCCO[C@@H](CN(C)CC2CCCCC2)[C@@H](C)CN([C@H](C)CO)C(=O)c2cc(NS(=O)(=O)c3ccc(Cl)cc3)ccc2O1 | inconclusive: 50.1 µM [inhibitor, partial curve, poor fit] | –

Row | SMILES | Potency | activity change, negative = inhibition
43 | CC(=O)Nc1cccc(-c2cnc3n[nH]c(-c4ccc5c(c4)OCO5)c3n2)c1 | inconclusive: 39.8 µM [inhibitor, full curve] | –
44 | COc1cccc(CC(C(=O)Nc2cc(C)ccc2C)c2nn[nH]n2)c1OC (stereo not drawn) | inconclusive: 2.51 µM [inhibitor, partial curve, poor fit] | –
45 | CCN(CC)CCN1C(=O)c2oc3ccccc3c(=O)c2C1c1cccc(Br)c1 (stereo not drawn) | inconclusive: 44.7 µM [inhibitor, partial curve, poor fit] | –
46 | Cc1c(NC(=O)Nc2ccccc2Cl)sc(=S)n1C | inconclusive: 50.1 µM [inhibitor, full curve, poor fit] | –
47 | CCOC(=O)C1CCCN(C(=O)CSc2nccn2C)C1 (stereo not drawn) | inconclusive: 100 µM [inhibitor, single point] | –
48 | O=C(NC(=S)NNC(=O)c1ccccc1F)c1cccnc1 | inconclusive: 39.8 µM [inhibitor, partial curve, poor fit] | –
49 | COc1cc(C=NNC(=O)C(=O)Nc2cccc(Cl)c2)cc(OC)c1O | inconclusive: 112 µM [inhibitor, single point] | –
50 | COc1ccccc1CNC(=O)COC(=O)CNS(=O)(=O)c1ccc(NC(C)=O)cc1 | inconclusive: 31.6 µM [inhibitor, partial curve, poor fit] | –
51 | COc1ccccc1/C=C/CN1CC(C)OC(C)C1 (stereo not drawn) | inconclusive: 1.12 µM [inhibitor, full curve] | –
52 | O=C1/C(=C/c2ccc(Br)cc2F)Cc2ccccc21 | inconclusive: 12.6 µM [inhibitor, partial curve, poor fit] | –
53 | COc1ccccc1C(=O)Nc1ccc([C@H]2OCC(=O)N(Cc3cccnc3)[C@@H]2CO)cc1 | – | inactive: 7.93%
54 | CC(C)(C)c1ccc(C(=S)NCCC2=CCCCC2)cc1 | inconclusive: 56.2 µM [inhibitor, partial curve, poor fit] | –
55 | Cc1ccc(-c2nnc3sc(C4COc5ccccc5O4)nn23)cc1 (stereo not drawn) | – | inactive: -5.09%
56 | C[C@@]12CCC[C@H]1[C@@H]1CC[C@H]3C[C@@H](O)CC[C@]3(C)[C@H]1CC2 | – | inactive: -3.91%
57 | Cc1ccc(S(=O)(=O)c2cn(CC(=O)Nc3ccc(Cl)cc3)c3ccc(F)cc3c2=O)cc1C | inconclusive: 0.891 µM [inhibitor, full curve, poor fit] | –
58 | CCc1noc(C)c1C(=O)OCC(=O)NC(C)c1ccccc1 (stereo not drawn) | inconclusive: 100 µM [inhibitor, single point] | –
59 | Cc1ccc(C)c(NS(=O)(=O)c2cc(C(=O)NCc3ccco3)ccc2C)c1 | inconclusive: 89.1 µM [inhibitor, partial curve, poor fit] | –
60 | CC1CCCC(NC(=S)NCc2ccc(F)cc2)C1C (stereo not drawn) | inconclusive: 44.7 µM [inhibitor, partial curve, poor fit] | –
61 | COC[C@@H]1CN(Cc2cnn(C)c2C)C[C@H]1C(=O)NC1CC1 | – | inactive: 4.64%
62 | CC1C[N+](=C2C=C(N3CCOCC3)CC(C)(C)C2)CC(C)O1 (stereo not drawn) | active: 28.2 µM | –
63 | O=C(c1ccc(-c2ccccc2)cc1)N1CCN(CC2CC=CCC2)CC1 (stereo not drawn) | inconclusive: 0.224 µM [inhibitor, full curve] | –

— PubChem BioAssay AID1671190 (National Center for Advancing Translational Sciences (NCATS), 2021)
